The chains are these.
B1: catalase (protein, UniProt P04040 1-527)
chain: MADSRDPASDQMQHWKEQRAAQKADVLTTGAGNPVGDKLNVITVGPRGPLLVQDVVFTDEMAHFDRERIPERVVHAKGAGAFGYFEVTHDITKYSKAKVFEHIGKKTPIAVRFSTVAGESGSADTVRDPRGFAVKFYTEDGNWDLVGNNTPIFFIRDPILFPSFIHSQKRNPQTHLKDPDMVWDFWSLRPESLHQVSFLFSDRGIPDGHRHMNGYGSHTFKLVNANGEAVYCKFHYKTDQGIKNLSVEDAARLSQEDPDYGIRDLFNAIATGKYPSWTFYIQVMTFNQAETFPFNPFDLTKVWPHKDYPLIPVGKLVLNRNPVNYFAEVEQIAFDPSNMPPGIEASPDKMLQGRLFAYPDTHRHRLGPNYLHIPVNCPYRARVANYQRDGPMCMQDNQGGAPNYYPNSFGAPEQQPSALEHSIQYSGEVRRFNTANDDNVTQVRAFYVNVLNEEQRKRLCENIAGHLKDAQIFIQKKAVKNFTEVHPDYGSHIQALLDKYNAEKPKNAIHTFVQSGSHLAAREKANL
B2: RNA-binding protein 14 (protein, UniProt Q96PK6 1-669)
chain: MKIFVGNVDGADTTPEELAALFAPYGTVMSCAVMKQFAFVHMRENAGALRAIEALHGHELRPGRALVVEMSRPRPLNTWKIFVGNVSAACTSQELRSLFERRGRVIECDVVKDYAFVHMEKEADAKAAIAQLNGKEVKGKRINVELSTKGQKKGPGLAVQSGDKTKKPGAGDTAFPGTGGFSATFDYQQAFGNSTGGFDGQARQPTPPFFGRDRSPLRRSPPRASYVAPLTAQPATYRAQPSVSLGAAYRAQPSASLGVGYRTQPMTAQAASYRAQPSVSLGAPYRGQLASPSSQSAAASSLGPYGGAQPSASALSSYGGQAAAASSLNSYGAQGSSLASYGNQPSSYGAQAASSYGVRAAASSYNTQGAASSLGSYGAQAASYGAQSAASSLAYGAQAASYNAQPSASYNAQSAPYAAQQAASYSSQPAAYVAQPATAAAYASQPAAYAAQATTPMAGSYGAQPVVQTQLNSYGAQASMGLSGSYGAQSAAAATGSYGAAAAYGAQPSATLAAPYRTQSSASLAASYAAQQHPQAAASYRGQPGNAYDGAGQPSAAYLSMSQGAVANANSTPPPYERTRLSPPRASYDDPYKKAVAMSKRYGSDRRLAELSDYRRLSESQLSFRRSPTKSSLDYRRLPDAHSDYARYSGSYNDYLRAAQMHSGYQRRM
B3: Peroxiredoxin-1 (protein, UniProt Q06830 1-199)
chain: MSSGNAKIGHPAPNFKATAVMPDGQFKDISLSDYKGKYVVFFFYPLDFTFVCPTEIIAFSDRAEEFKKLNCQVIGASVDSHFCHLAWVNTPKKQGGLGPMNIPLVSDPKRTIAQDYGVLKADEGISFRGLFIIDDKGILRQITVNDLPVGRSVDETLRLVQAFQFTDKHGEVCPAGWKPGSDTIKPDVQKSKEYFSKQK
B4: Nucleolar spindle-associated protein 1 (protein, UniProt Q9BXS6 1-441)
chain: MIIPSLEELDSLKYSDLQNLAKSLGLRANLRATKLLKALKGYIKHEARKGNENQDESQTSASSCDETEIQISNQEEAERQPLGHVTKTRRRCKTVRVDPDSQQNHSEIKISNPTEFQNHEKQESQDLRATAKVPSPPDEHQEAENAVSSGNRDSKVPSEGKKSLYTDESSKPGKNKRTAITTPNFKKLHEAHFKEMESIDQYIERKKKHFEEHNSMNELKQQPINKGGVRTPVPPRGRLSVASTPISQRRSQGRSCGPASQSTLGLKGSLKRSAISAAKTGVRFSAATKDNEHKRSLTKTPARKSAHVTVSGGTPKGEAVLGTHKLKTITGNSAAVITPFKLTTEATQTPVSNKKPVFDLKASLSRPLNYEPHKGKLKPWGQSKENNYLNQHVNRINFYKKTYKQPHLQTKEEQRKKREQERKEKKAKVLGMRRGLILAED

Sequences of proteins named here, by UniProt entry; tags and fusion partners are left off.
UniProt Q14974: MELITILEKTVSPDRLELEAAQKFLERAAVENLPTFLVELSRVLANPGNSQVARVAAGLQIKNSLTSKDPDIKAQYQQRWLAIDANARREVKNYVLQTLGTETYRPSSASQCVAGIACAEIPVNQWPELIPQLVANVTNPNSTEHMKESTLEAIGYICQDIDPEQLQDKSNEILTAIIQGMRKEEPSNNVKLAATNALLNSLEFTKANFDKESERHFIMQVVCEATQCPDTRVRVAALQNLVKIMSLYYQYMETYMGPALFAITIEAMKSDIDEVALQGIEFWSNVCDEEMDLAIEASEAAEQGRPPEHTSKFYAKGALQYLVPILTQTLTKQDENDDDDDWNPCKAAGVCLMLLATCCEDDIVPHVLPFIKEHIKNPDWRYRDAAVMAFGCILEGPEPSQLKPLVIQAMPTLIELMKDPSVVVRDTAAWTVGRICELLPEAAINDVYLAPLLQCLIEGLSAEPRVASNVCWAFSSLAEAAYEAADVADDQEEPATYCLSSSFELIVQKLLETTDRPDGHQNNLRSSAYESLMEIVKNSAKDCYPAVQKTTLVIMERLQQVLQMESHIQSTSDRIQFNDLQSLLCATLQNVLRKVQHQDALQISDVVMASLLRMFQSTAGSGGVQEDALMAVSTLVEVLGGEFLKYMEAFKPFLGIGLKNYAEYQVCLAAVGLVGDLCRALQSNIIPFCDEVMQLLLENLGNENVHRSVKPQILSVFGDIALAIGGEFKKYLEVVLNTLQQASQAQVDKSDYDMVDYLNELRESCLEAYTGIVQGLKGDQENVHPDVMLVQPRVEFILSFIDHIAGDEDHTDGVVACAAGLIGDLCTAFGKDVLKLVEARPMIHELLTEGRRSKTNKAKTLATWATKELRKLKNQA

Results are given in words; binding and its absence hold for the method and conditions named. In cells and extracts the contact can be indirect. These calls come from enrichment with a bait or labelling near it, and not all partners need be listed.

This test deals with Human karyopherin beta-1/importin beta-1 (human (endogenous in HeLa)) (UniProt Q14974). In words: affinity purification with mass spectrometry; importin beta-1 captured with antibody Sigma I2534 cross-linked to Protein G-Sepharose from extract of RO3306-synchronized and released mitotic HeLa cells; lysis buffer 50 mM Tris HCl pH 8.0, 150 mM NaCl, 1% NP40; overnight at 4 °C; LTQ-Orbitrap …; mouse IgG as control.
Take B1: the binding entry is “binds”. Next, B2: “binds”. Next, B3: “binds”; B4: “binds”.

The values are drawn from article PMC5789818.
